Assay results from PubChem BioAssay AID504467 (National Center for Advancing Translational Sciences (NCATS), 2011).
Out of some 330,000 compounds screened, about 7,700 (2.3%) were called active. Inconclusive results, whose numbers are uncertain, are shown with a selection of clear calls. The call rests on the fitted dose curve; in most records, active means well fitted inhibition curve with a large enough effect; inconclusive means small, poorly fitted or top-dose-only effect, or effect the other way; inactive means flat fitted curve, though single readings scatter. Potencies of inconclusive entries are doubtful fits and often do not repeat.

Test: qHTS screen for small molecules that inhibit ELG1-dependent DNA repair in human embryonic kidney (HEK293T) cells expressing luciferase-tagged ELG1; further: nearly all actives have a fitted effect of over 55% in size
Details: HEK293T ELG1-luciferase reporter, luminescence, 16 h, DNA damage induced by 5-fluorouridine; activity change, negative = inhibition: at 46.1 µM (top of the series)
Outline: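 HEK293T cells expressing luciferase-tagged ELG1 (2,000/well) received 5-Fluorouridine plus compound or DMSO for 16 hr at 37 °C. Luciferase was read by ONE-Glo luminescence after 30 min at room temperature.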
On the % scale 0 is the no-effect control and ±100 the full control effect; potency means the concentration at half of the fitted maximal effect.

Row | Structure (SMILES) | Potency | activity change, negative = inhibition
1 | O=C(COC(=O)c1ccccc1-c1nc2ccccc2s1)Nc1ccccc1C(F)(F)F | active: 23.1 µM | –
2 | Cc1nc2c3cc(Cl)ccc3n(CCN3CCOCC3)c2s1 | inconclusive: 29.1 µM [inhibitor, single point] | –
3 | CCNc1ccc(S(=O)(=O)N(C)C)cc1NCC(=O)Nc1ccccc1F | – | inactive: -26.2%
4 | CCOC(=O)N1CCN(C(=O)COC(=O)C2CCN(S(=O)(=O)c3c(Cl)cccc3Cl)CC2)CC1 | – | inactive: -14.2%
5 | CCOC(=O)c1ccc(S(=O)(=O)NNc2ccc(C(F)(F)F)cn2)cc1 | inconclusive: 25.9 µM [inhibitor, partial curve, poor fit] | –
6 | Cc1ccc(C2CC(C(F)(F)F)n3nc(C(=O)Nc4c(C)n(C)n(-c5ccccc5)c4=O)cc3N2)cc1 (stereo not drawn) | – | inactive: -19.6%
7 | CC(C(=O)Nc1ncc([N+](=O)[O-])s1)N1C(=O)c2ccccc2S1(=O)=O (stereo not drawn) | inconclusive: 1.16 µM [inhibitor, single point] | –
8 | Cc1cc2ncc(-c3ncc(C(F)(F)F)cc3Cl)cn2n1 | inconclusive: 2.06 µM [activator, partial curve] | –
9 | COC(=O)c1cccc(S(=O)(=O)N2CCOCC2)c1 | – | inactive: 14.2%
10 | COc1ccc(CCNc2nc(-c3sc(N)nc3C)cs2)cc1OC | inconclusive: 20.6 µM [inhibitor, partial curve] | –
11 | CCCC(=O)O[C@]1(C(=O)COC(C)=O)CC[C@H]2[C@@H]3C[C@H](F)C4=CC(=O)C=C[C@]4(C)[C@@]3(F)[C@@H](O)C[C@@]21C | – | inactive: 13.2%
12 | Cc1ccc(NC(=O)C2CCN(S(=O)(=O)c3c(C)noc3/C=C/c3ccco3)CC2)nc1 | active: 14.6 µM | –
13 | O=C(Nc1ccc(N2CCOCC2)cc1)C1CC(=O)N(c2ccccc2)C1 (stereo not drawn) | inconclusive: 18.3 µM [activator, single point] | –
14 | S=C(Nc1ccccc1)N1CCn2c(nc3ccccc32)C1 | inconclusive: 29.1 µM [inhibitor, single point] | –
15 | NC(=O)[C@@H]1CCCN1C(=O)c1cc(COc2ccc3c(c2)CCCC3)on1 | inconclusive: 13 µM [activator, partial curve] | –
16 | Cc1cc(C(=O)Nc2cc(C(F)(F)F)ccc2N2CCOCC2)no1 | inconclusive: 23.1 µM [inhibitor, single point] | –
17 | O=C1OC(COc2ccc(Br)cc2)CN1c1ccccc1 (stereo not drawn) | – | inactive: 0%
18 | CS(=O)(=O)N(CC(=O)N1CCOCC1)c1cc(C(F)(F)F)ccc1Cl | – | inactive: -9.2%
19 | CCCNC(=O)c1ccc(C)c(NC(=O)C2=C(C)OCCS2)c1 | – | inactive: 1.65%
20 | COc1cc(OC)cc(C(=O)NC(=S)Nc2nc(-c3cc4ccccc4o3)cs2)c1 | – | inactive: -4.33%
21 | Cc1ccccc1OCC(=O)NC(C)c1ccccc1 (stereo not drawn) | inconclusive: 4.61 µM [inhibitor, partial curve, poor fit] | –
22 | O=C(O)c1ccccc1C(=O)OCCCCOC(=O)c1ccccc1C(=O)O | – | inactive: -6.98%
23 | CN(C(=S)NC(=O)c1ccccc1Br)C1CCCCC1 | – | inactive: 10.3%
24 | Brc1cnc2nc(SCc3nc4ccccc4[nH]3)[nH]c2c1 | – | inactive: 0.168%

Row | Structure (SMILES) | Potency | activity change, negative = inhibition
25 | COc1cc(/C=C/c2nc3ccccc3c(=O)[nH]2)cc(Br)c1O | – | inactive: 22.3%
26 | O=C(Cc1cccs1)Nc1ccc(F)cc1 | inconclusive: 18.3 µM [activator, single point] | –
27 | COc1cc(OC)cc(-c2cc(NC(C)=O)n[nH]2)c1 | inconclusive: 18.4 µM [activator, single point] | –
28 | Cc1[nH]n(-c2ccccc2)c(=O)c1/C=N/NC(=O)c1cccc(F)c1 | inconclusive: 6.51 µM [inhibitor, single point] | –
29 | O=C(Nc1ccc(F)cc1)N1CCCC(c2nc3c(nnn3Cc3ccccc3Cl)c(=O)[nH]2)C1 (stereo not drawn) | – | inactive: -26.2%
30 | COc1ccc(OCc2nnc(SCC(=O)Nc3ccccc3Cl)o2)cc1 | – | inactive: 18.9%
31 | CC(=O)Cc1nsc(NC(=O)c2ccc(Br)o2)n1 | inconclusive: 16.4 µM [activator, partial curve] | –
32 | O=C(N/N=C/c1ccc(-c2ccc([N+](=O)[O-])cc2)o1)C(O)c1ccccc1 (stereo not drawn) | inconclusive: 18.4 µM [inhibitor, single point] | –
33 | O=C(CC(=O)c1ccccc1)Nc1cccnc1 | inconclusive: 14.6 µM [activator, partial curve] | –
34 | O=C(OCc1ccc(F)cc1)c1ccc2c(c1)-c1ccccc1C2=O | inconclusive: 31.6 µM [activator, single point] | –
35 | C=CCn1c(SCC(=O)N2CCN(c3ccccc3)CC2)nnc1-c1ccco1 | inconclusive: 32.6 µM [inhibitor, single point] | –
36 | COc1ccc(C=C2C=C(C(C)(C)C)C(=O)C(C(C)(C)C)=C2)cc1OC | inconclusive: 25.9 µM [inhibitor, single point] | –
37 | CCN1CCN(C(=O)C2CCC(=O)N(Cc3cccc(C(F)(F)F)c3)C2)CC1 (stereo not drawn) | – | inactive: 6.06%
38 | O=C(/C=C/Nc1ccc(F)c(F)c1)c1ccc(Br)cc1 | inconclusive: 5.8 µM [activator, partial curve] | –
39 | O=C(NCc1ccccc1)C12CN(Cc3ccccc3)CC1C(c1ccc([N+](=O)[O-])cc1)=NO2 (stereo not drawn) | inconclusive: 14.6 µM [inhibitor, single point] | –
40 | CCc1ccc(N2CCN(C(=O)c3ccc(OC)c(OC)c3)CC2)cc1 | inconclusive: 5.8 µM [inhibitor, partial curve, poor fit] | –
41 | CCOc1ccc(-n2c(SCC(=O)Nc3nccs3)nnc2-c2ccoc2C)cc1 | inconclusive: 29.1 µM [inhibitor, single point] | –
42 | CC(=O)Nc1ccc(-c2ccc(NC(C)=O)cc2)cc1 | inconclusive: 29.1 µM [activator, single point] | –
43 | CCN(CC)Cc1cc2[nH]c3c4ccc(Cl)cc4ncc3c2cc1OC | – | inactive: -0.796%
44 | CCc1nccn1CCC(=O)N1CCCC(N2CCN(c3ccccc3C)CC2)C1 (stereo not drawn) | – | inactive: -9.84%
45 | COc1ccc(NC(=O)C2CCCN2C(=O)Oc2ccccc2)cc1 (stereo not drawn) | – | inactive: 14.1%
46 | CCOC(=O)N1CCN(S(=O)(=O)c2cc(Br)cc3c2N(C(C)=O)C(C)C3)CC1 (stereo not drawn) | – | inactive: -4.13%
47 | Cc1ccc2[nH]c3nc(NN)nnc3c2c1 | – | inactive: 8.61%
48 | N=c1oc2ccc(Cl)cc2cc1C(=O)Nc1ccc(F)cc1 | inconclusive: 18.3 µM [activator, partial curve] | –

Some of the entries above, reformatted.
Row,Structure (SMILES),Potency,"activity change, negative = inhibition"
43,CCN(CC)Cc1cc2[nH]c3c4ccc(Cl)cc4ncc3c2cc1OC,–,inactive: -0.796%
44,CCc1nccn1CCC(=O)N1CCCC(N2CCN(c3ccccc3C)CC2)C1 (stereo not drawn),–,inactive: -9.84%
45,COc1ccc(NC(=O)C2CCCN2C(=O)Oc2ccccc2)cc1 (stereo not drawn),–,inactive: 14.1%
